{"sequences": {"note": "Chains of the proteins cited; added tags and fusions are not shown. Lines headed by an entry give the natural chain unless they say otherwise; changes in a name come on top.", "UniProt Q9BV19": "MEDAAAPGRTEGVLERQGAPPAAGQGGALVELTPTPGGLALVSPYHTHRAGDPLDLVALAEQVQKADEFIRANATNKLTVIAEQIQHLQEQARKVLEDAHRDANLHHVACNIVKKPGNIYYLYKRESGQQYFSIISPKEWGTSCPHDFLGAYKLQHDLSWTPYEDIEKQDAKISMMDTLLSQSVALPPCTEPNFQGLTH", "UniProt Q9H0L4": "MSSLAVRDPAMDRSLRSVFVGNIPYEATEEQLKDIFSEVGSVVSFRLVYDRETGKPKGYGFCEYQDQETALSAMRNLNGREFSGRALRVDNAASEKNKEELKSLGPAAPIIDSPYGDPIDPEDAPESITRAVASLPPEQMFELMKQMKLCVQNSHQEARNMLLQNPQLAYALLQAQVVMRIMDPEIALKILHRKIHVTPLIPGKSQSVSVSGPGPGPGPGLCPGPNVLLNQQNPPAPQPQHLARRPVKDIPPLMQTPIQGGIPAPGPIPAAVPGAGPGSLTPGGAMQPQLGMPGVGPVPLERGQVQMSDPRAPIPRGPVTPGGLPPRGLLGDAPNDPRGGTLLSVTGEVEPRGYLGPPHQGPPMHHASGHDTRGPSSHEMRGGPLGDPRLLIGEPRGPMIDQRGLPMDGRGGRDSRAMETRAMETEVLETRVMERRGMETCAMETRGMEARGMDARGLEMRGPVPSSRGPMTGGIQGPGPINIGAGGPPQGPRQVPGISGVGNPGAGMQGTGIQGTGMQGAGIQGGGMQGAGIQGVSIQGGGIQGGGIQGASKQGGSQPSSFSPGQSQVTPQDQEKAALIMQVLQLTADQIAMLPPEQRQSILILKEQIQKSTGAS", "UniProt Q9C0G6": "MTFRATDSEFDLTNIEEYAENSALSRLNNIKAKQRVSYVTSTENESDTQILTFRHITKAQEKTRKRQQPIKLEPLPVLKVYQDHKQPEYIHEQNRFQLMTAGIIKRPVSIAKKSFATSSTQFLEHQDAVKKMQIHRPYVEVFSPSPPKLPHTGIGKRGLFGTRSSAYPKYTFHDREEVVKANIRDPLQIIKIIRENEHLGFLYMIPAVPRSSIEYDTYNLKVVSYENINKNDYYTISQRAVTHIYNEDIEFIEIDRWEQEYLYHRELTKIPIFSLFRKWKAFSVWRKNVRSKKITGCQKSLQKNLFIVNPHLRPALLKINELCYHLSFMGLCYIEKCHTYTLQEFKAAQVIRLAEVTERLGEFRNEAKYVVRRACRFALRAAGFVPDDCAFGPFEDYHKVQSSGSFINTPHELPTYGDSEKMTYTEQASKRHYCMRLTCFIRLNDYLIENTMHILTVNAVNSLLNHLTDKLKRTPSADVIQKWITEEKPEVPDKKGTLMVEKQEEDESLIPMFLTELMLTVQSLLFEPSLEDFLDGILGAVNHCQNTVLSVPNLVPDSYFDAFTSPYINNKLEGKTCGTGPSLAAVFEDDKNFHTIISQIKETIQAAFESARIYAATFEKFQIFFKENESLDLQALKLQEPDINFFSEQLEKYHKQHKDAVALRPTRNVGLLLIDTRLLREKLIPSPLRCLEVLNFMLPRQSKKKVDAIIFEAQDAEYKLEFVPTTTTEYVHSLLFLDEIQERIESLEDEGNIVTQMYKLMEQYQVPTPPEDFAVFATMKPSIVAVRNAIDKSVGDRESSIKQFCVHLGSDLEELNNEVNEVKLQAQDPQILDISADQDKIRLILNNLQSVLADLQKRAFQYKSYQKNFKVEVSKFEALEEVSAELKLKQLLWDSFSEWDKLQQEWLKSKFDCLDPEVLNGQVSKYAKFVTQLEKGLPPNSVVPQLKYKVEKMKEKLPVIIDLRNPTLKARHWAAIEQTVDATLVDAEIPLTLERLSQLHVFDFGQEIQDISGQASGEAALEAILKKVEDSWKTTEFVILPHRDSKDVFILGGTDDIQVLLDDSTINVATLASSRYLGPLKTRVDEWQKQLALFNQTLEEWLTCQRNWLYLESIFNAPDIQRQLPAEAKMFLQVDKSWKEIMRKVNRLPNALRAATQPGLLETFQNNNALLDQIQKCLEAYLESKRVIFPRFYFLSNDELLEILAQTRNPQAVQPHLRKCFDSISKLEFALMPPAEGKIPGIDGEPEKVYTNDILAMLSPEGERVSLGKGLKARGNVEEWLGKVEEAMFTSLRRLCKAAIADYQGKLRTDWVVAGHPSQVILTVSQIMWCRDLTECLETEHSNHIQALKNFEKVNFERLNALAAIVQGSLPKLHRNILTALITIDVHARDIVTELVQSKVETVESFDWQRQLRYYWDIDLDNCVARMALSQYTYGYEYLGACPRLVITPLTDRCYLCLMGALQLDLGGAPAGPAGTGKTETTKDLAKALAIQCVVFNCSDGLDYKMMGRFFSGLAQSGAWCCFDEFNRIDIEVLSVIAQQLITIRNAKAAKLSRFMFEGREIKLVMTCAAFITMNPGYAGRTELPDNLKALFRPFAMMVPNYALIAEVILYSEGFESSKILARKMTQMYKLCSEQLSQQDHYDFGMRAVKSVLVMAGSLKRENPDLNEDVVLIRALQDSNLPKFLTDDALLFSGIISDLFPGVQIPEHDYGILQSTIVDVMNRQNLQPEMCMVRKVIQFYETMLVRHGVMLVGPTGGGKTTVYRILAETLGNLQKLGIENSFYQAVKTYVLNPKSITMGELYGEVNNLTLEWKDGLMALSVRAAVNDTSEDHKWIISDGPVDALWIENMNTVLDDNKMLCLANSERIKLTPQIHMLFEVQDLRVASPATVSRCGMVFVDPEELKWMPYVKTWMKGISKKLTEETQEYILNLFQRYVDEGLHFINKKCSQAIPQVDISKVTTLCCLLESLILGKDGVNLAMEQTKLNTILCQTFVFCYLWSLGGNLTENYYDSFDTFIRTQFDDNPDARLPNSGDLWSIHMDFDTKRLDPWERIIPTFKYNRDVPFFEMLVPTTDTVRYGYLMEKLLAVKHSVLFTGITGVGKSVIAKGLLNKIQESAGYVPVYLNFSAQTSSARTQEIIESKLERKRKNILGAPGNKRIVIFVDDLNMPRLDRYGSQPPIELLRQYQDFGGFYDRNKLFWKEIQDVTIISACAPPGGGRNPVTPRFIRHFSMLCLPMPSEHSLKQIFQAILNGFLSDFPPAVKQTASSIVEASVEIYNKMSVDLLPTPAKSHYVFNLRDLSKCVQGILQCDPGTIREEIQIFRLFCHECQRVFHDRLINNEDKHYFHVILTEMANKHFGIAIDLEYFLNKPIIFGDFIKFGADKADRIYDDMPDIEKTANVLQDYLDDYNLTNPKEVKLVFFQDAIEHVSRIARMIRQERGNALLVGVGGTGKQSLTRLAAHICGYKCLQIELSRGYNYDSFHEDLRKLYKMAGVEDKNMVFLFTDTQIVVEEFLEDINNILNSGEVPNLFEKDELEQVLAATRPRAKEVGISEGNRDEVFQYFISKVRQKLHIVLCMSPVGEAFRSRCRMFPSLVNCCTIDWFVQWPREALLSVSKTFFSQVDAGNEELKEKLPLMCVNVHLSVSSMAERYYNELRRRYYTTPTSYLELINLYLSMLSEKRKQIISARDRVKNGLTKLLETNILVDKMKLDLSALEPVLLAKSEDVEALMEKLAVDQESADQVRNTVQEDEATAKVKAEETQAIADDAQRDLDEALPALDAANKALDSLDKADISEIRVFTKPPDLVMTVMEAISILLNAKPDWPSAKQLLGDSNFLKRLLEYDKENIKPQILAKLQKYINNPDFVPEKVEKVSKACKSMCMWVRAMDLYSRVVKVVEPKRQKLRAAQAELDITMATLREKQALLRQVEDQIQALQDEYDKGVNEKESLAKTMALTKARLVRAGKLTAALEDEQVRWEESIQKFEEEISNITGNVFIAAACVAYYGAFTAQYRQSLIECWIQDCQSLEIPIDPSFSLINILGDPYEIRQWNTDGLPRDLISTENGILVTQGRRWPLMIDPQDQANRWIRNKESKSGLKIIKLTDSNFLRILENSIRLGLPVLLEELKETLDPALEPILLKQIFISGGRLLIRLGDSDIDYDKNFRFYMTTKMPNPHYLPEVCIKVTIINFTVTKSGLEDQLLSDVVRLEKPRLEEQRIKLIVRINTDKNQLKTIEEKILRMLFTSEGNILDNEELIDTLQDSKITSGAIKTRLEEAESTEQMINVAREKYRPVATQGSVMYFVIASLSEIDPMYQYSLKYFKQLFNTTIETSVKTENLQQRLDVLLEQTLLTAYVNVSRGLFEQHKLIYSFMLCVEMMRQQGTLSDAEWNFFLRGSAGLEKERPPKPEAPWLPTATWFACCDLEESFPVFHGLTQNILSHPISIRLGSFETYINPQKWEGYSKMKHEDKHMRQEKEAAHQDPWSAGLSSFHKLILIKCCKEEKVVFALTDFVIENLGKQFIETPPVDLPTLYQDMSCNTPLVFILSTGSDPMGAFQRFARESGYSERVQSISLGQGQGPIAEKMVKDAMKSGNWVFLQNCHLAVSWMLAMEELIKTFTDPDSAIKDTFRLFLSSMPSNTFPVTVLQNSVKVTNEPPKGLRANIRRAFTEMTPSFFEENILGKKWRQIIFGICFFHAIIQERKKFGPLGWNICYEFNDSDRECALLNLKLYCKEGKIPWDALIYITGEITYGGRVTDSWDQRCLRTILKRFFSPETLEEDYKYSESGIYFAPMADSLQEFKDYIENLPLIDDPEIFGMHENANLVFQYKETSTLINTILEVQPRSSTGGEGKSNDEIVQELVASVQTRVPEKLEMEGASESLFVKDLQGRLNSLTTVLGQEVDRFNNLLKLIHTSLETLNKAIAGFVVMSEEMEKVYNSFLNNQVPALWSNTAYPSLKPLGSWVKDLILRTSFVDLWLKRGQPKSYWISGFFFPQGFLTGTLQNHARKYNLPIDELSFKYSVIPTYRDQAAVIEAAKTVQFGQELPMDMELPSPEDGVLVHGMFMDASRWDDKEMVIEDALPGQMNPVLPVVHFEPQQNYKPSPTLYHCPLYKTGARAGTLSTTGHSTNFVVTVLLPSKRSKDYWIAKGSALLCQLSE", "UniProt Q9C0E2": "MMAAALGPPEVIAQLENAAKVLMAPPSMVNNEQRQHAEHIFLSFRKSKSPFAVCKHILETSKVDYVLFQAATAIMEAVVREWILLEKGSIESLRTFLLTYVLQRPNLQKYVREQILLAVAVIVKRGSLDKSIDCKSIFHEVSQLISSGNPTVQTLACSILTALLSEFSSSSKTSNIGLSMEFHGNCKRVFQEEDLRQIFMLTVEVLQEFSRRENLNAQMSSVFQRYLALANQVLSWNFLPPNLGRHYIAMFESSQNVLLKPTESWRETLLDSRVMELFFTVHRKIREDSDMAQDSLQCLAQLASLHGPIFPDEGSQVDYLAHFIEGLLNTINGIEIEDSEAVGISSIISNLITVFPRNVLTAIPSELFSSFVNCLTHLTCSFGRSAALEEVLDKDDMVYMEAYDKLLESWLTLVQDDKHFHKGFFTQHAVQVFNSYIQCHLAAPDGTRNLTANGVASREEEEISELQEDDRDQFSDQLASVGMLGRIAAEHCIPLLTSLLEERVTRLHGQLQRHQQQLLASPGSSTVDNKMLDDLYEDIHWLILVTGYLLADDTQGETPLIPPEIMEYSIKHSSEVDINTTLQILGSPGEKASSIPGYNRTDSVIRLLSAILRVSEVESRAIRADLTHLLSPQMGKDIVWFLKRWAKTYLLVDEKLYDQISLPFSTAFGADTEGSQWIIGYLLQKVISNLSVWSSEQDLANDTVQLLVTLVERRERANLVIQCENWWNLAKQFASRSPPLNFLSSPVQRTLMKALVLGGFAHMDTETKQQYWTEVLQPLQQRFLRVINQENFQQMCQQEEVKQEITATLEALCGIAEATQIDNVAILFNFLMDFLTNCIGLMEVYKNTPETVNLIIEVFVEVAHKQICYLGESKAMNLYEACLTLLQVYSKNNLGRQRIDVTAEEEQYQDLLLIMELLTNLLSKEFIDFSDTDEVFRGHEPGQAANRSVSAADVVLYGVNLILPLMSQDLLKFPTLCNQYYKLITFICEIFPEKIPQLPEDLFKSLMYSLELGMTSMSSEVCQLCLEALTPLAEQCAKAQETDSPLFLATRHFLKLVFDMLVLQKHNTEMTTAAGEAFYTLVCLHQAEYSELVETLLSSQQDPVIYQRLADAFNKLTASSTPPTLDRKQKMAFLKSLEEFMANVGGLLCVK", "UniProt Q9C0F3": "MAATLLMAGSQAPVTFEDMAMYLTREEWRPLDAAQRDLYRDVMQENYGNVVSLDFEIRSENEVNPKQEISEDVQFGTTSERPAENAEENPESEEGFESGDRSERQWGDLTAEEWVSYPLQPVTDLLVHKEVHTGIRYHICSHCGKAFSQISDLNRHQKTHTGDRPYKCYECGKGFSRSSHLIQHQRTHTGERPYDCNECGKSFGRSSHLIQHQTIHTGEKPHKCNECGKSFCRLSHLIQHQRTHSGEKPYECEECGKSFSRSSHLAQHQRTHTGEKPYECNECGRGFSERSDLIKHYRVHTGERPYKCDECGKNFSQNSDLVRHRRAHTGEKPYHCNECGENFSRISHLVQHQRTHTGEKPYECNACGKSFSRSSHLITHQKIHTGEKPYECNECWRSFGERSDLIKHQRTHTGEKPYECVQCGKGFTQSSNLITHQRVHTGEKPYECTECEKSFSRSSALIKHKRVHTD"}, "source": "the supplement of paper PMC12819154", "about": "“High-throughput peptide-centric local stability assay extends protein–ligand identification to membrane proteins, tissues and bacteria” (Nature Structural & Molecular Biology, 2025)", "note": "The list shows a part of the results. Most entries show no effect beyond the scatter of the controls."}
{"compound": "Cc1nc(Nc2ncc(C(=O)Nc3c(C)cccc3Cl)s2)cc(N2CCN(CCO)CC2)n1 [dasatinib]", "assay": "log2 fold change of tryptic peptide abundance, ligand vs vehicle (limited proteolysis) (log2 ratio); higher = more trypsin-susceptible (destabilized)", "details": "ligand concentration: 5 uM; sample: K562 cleared lysate"}
{"target": "SENP6 (peptide sequence: KHCIAVIDSNPGQEESDPR, peptide start residue: 831) (UniProt Q9GZR1)", "log2 fold change": 0.591}
{"target": "BACH2 (peptide sequence: SVELSGLPSTSQQHFAR, peptide start residue: 350) (UniProt Q9BYV9)", "log2 fold change": -0.369}
{"target": "UniProt Q9BYG4 (peptide sequence: VTPHGLEKVPGIFISR, peptide start residue: 181)", "log2 fold change": -0.0474}
{"target": "C1orf50 (peptide sequence: LTVIAEQIQHLQEQAR, peptide start residue: 78) (UniProt Q9BV19)", "log2 fold change": 0.153}
{"target": "UniProt Q9BVL2 (peptide sequence: KMFLGDAVDVFETR, peptide start residue: 422)", "log2 fold change": -0.0855}
{"target": "UniProt Q9BYU1 (peptide sequence: FSAIQMQLK, peptide start residue: 219)", "log2 fold change": -0.0257}
{"target": "ZNF407 (peptide sequence: AGLEEQGRPGAK, peptide start residue: 2006) (UniProt Q9C0G0)", "log2 fold change": 0.604}
{"target": "UniProt Q9C0F1 (peptide sequence: ISAEAVGVDISGR, peptide start residue: 151)", "log2 fold change": 0.0469}
{"target": "RSRP1 (peptide sequence: GIGVSSNGAKPELSEK, peptide start residue: 213) (UniProt Q9BUV0)", "log2 fold change": 0.386}
{"target": "CSTF2T (peptide sequence: LVYDRETGKPK, peptide start residue: 47) (UniProt Q9H0L4)", "log2 fold change": 0.0674}
{"target": "POLR1E (peptide sequence: EKMDSCIEAFGTTK, peptide start residue: 133) (UniProt Q9GZS1)", "log2 fold change": 0.117}
{"target": "UniProt Q9BZ68 (peptide sequence: EKLDSFLPAHLCK, peptide start residue: 195)", "log2 fold change": -0.0582}
{"target": "DOCK9 (peptide sequence: LFYLDPDAQK, peptide start residue: 338) (UniProt Q9BZ29)", "log2 fold change": 0.337}
{"target": "UniProt Q9BYG3 (peptide sequence: VHKELFK, peptide start residue: 126)", "log2 fold change": 0.336}
{"target": "ANKRD30A (peptide sequence: KFCVLKK, peptide start residue: 995) (UniProt Q9BXX3)", "log2 fold change": -0.054}
{"target": "RBM4 (peptide sequence: MHVQLSTSR, peptide start residue: 141) (UniProt Q9BWF3)", "log2 fold change": 0.326}
{"target": "HDAC8 (peptide sequence: RASMVHSLIEAYALHK, peptide start residue: 37) (UniProt Q9BY41)", "log2 fold change": 0.117}
{"target": "UniProt Q9C0G6 (peptide sequence: KLYKMAGVEDK, peptide start residue: 2488)", "log2 fold change": 0.245}
{"target": "UCK2 (peptide sequence: TLKEITEGK, peptide start residue: 97) (UniProt Q9BZX2)", "log2 fold change": -0.327}
{"target": "FAM117A (peptide sequence: RGCSPPAPAGSPR, peptide start residue: 26) (UniProt Q9C073)", "log2 fold change": -0.224}
{"target": "BTBD2 (peptide sequence: EAAYNWQASKPTVQER, peptide start residue: 91) (UniProt Q9BX70)", "log2 fold change": 0.504}
{"target": "ATG10 (peptide sequence: YCAEFIK, peptide start residue: 15) (UniProt Q9H0Y0)", "log2 fold change": 0.124}
{"target": "XPO4 (peptide sequence: SKSPFAVCK, peptide start residue: 47) (UniProt Q9C0E2)", "log2 fold change": 0.28}
{"target": "MKRN2 (peptide sequence: QLSSQGTVR, peptide start residue: 363) (UniProt Q9H000)", "log2 fold change": -0.28}
{"target": "UniProt Q9BVC4 (peptide sequence: FWQAHSGICTR, peptide start residue: 26)", "log2 fold change": -0.0832}
{"target": "OSBPL8 (peptide sequence: FEEQGDFESEKLWQR, peptide start residue: 675) (UniProt Q9BZF1)", "log2 fold change": -0.488}
{"target": "UniProt Q9C0F3 (peptide sequence: VHTGEKPYECTECEK, peptide start residue: 439)", "log2 fold change": 0.1}
{"target": "UniProt Q9BYB0 (peptide sequence: GRAGKFLDEER, peptide start residue: 62)", "log2 fold change": 0.169}
{"target": "UniProt Q9H0P0 (peptide sequence: SHGLLVQQALPK, peptide start residue: 156)", "log2 fold change": 0.432}
